Measured values: the supplement of paper PMC10849652
The other results are listed elsewhere or left out.

Protein sequences, listed by entry. Tags and fused reporters are not part of them. Lines headed by an entry give the natural chain unless they say otherwise; changes in a name come on top.
UniProt Q96PU8: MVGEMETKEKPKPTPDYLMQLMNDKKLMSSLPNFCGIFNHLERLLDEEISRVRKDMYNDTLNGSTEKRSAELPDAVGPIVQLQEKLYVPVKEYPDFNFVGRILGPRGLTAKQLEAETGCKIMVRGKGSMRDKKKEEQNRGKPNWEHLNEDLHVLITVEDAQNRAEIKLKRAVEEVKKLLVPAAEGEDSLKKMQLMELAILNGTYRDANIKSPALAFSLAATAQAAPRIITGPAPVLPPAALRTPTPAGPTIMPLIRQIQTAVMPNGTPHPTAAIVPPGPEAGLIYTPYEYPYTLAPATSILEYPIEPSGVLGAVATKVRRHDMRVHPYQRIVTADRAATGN
UniProt Q9NP72: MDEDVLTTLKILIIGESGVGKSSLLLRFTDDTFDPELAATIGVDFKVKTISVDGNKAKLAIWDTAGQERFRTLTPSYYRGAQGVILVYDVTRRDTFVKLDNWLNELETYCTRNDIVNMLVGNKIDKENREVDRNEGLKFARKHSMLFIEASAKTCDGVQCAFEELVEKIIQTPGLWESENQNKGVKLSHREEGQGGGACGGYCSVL
UniProt P61006: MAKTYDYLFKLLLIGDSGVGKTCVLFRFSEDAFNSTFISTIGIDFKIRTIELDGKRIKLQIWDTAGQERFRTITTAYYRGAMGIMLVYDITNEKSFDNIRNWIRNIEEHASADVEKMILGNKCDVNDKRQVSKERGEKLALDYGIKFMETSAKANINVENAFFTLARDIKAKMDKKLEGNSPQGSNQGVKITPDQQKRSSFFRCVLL
UniProt Q5HYI8: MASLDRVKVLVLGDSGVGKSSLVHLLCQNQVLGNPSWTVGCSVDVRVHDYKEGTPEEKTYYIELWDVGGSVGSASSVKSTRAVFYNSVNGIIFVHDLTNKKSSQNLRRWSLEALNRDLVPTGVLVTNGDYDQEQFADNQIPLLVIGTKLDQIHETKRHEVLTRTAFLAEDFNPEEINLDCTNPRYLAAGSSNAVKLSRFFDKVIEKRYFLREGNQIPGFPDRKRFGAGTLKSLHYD
UniProt Q15286: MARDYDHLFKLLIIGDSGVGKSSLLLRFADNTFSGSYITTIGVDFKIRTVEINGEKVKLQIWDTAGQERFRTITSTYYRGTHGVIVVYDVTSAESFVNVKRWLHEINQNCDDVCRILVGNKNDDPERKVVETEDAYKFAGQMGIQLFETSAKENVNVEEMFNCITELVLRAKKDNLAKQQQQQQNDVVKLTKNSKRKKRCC
UniProt Q15311: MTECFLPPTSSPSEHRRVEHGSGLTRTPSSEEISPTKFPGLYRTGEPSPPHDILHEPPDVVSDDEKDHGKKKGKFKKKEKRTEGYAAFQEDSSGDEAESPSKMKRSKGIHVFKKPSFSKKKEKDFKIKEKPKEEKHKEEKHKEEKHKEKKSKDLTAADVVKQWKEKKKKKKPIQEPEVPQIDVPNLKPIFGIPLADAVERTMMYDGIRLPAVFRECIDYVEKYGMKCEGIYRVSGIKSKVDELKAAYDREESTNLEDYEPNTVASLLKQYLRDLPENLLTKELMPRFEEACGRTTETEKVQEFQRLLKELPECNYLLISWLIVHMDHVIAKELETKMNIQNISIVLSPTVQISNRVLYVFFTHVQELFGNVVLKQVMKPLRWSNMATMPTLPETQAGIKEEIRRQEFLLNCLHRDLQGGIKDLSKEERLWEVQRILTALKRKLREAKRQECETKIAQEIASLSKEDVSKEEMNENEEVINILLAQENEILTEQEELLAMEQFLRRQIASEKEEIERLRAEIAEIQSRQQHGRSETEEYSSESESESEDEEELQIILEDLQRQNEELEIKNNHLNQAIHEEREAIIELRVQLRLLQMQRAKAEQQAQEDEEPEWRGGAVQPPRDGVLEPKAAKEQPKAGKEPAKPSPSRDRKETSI
UniProt P49792, whole entry, looked up: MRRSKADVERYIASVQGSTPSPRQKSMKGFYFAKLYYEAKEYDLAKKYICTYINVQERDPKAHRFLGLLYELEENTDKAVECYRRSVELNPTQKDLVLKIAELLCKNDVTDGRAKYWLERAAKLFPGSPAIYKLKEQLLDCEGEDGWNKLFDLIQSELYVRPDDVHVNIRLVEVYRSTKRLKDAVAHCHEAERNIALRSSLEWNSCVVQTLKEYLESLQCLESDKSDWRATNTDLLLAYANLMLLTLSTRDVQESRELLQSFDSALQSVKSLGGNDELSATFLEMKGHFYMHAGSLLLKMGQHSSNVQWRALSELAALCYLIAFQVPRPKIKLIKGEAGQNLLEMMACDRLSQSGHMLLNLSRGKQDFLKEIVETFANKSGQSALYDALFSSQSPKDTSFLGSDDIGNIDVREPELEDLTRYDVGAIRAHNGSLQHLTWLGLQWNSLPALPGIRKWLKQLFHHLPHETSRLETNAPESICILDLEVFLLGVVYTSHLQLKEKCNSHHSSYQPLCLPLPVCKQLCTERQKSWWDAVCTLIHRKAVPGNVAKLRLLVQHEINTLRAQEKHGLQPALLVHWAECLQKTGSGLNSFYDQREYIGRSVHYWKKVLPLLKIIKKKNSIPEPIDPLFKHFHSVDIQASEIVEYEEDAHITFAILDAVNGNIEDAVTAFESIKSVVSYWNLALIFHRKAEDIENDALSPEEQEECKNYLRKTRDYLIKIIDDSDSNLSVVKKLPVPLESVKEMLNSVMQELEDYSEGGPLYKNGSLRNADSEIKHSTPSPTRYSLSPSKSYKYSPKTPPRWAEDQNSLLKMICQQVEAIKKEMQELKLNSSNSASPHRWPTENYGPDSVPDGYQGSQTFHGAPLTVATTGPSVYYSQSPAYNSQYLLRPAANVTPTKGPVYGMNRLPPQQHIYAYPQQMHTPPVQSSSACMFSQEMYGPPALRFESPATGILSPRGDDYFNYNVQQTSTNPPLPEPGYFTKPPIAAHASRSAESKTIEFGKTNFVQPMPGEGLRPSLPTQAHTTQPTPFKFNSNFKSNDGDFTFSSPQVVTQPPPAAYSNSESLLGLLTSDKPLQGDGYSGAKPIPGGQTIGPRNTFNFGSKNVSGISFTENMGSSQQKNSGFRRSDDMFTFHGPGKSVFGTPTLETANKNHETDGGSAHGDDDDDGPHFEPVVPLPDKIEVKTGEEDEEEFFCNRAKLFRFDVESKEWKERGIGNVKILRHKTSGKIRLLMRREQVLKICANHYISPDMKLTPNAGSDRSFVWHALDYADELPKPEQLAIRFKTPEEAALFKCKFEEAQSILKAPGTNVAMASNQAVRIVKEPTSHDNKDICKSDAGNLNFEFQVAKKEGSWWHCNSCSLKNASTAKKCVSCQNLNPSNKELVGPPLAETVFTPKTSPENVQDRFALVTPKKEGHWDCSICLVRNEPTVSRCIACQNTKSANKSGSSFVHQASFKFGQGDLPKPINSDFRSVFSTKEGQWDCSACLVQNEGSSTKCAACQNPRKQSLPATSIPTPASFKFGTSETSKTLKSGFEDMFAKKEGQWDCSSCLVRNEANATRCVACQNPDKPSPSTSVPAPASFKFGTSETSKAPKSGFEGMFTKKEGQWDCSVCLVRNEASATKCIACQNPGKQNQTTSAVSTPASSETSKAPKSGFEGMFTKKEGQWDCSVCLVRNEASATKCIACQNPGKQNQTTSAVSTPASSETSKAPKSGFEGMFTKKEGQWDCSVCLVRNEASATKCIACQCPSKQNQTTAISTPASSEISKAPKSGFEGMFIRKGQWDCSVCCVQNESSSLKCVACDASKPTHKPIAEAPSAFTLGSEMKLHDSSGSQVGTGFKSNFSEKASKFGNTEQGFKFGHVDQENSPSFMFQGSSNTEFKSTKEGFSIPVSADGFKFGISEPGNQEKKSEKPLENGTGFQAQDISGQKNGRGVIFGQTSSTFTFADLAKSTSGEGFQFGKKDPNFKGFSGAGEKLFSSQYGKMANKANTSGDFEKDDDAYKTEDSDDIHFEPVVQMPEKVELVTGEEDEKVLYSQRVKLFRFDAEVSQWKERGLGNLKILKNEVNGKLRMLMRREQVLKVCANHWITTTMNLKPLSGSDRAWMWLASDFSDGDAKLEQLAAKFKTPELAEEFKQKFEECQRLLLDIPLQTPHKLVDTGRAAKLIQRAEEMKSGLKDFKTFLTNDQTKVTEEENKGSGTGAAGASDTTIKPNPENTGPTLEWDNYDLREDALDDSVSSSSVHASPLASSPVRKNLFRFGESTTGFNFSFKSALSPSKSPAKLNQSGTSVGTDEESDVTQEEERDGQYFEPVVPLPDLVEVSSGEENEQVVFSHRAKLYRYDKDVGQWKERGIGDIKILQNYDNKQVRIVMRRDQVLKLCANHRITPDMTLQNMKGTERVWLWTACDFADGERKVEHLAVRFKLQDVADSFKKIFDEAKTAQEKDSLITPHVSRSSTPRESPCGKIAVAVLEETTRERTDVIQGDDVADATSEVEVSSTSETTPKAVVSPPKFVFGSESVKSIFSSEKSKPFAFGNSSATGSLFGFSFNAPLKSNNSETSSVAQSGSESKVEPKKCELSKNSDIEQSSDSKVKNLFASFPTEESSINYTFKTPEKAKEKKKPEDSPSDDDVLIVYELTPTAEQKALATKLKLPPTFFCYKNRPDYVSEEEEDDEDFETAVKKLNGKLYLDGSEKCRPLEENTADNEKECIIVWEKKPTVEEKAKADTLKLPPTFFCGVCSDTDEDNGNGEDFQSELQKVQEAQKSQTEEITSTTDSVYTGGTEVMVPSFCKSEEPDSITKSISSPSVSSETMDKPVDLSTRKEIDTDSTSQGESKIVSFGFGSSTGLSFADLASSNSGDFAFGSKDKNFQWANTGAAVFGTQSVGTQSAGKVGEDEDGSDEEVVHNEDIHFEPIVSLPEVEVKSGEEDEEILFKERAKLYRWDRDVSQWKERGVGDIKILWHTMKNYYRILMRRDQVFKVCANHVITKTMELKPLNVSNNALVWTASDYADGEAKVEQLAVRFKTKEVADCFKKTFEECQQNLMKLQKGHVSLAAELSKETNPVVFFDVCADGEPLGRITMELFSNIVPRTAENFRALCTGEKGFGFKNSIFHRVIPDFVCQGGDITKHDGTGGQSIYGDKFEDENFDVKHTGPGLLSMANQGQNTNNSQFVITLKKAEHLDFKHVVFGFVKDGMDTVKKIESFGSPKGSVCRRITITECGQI
UniProt Q13637: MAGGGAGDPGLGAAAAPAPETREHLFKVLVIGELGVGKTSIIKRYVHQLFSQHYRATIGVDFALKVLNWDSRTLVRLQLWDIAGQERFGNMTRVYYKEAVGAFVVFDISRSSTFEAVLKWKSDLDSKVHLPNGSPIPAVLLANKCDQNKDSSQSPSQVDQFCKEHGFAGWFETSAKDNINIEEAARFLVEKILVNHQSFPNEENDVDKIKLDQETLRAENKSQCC
UniProt P52306: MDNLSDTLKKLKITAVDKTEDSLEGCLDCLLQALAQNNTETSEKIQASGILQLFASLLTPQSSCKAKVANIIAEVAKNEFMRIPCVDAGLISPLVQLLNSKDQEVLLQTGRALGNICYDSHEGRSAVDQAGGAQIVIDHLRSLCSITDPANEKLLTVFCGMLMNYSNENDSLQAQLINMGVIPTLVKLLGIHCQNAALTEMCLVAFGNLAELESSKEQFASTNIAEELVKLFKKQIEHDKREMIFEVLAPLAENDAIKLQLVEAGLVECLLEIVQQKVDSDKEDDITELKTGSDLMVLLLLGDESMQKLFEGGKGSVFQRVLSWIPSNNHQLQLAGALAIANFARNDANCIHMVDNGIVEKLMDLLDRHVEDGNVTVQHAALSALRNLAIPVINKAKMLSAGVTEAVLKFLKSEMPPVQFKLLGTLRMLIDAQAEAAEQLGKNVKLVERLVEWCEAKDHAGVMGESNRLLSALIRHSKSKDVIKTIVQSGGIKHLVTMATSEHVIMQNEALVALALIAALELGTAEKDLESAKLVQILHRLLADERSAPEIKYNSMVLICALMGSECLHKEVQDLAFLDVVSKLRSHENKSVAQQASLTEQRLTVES
UniProt O60216: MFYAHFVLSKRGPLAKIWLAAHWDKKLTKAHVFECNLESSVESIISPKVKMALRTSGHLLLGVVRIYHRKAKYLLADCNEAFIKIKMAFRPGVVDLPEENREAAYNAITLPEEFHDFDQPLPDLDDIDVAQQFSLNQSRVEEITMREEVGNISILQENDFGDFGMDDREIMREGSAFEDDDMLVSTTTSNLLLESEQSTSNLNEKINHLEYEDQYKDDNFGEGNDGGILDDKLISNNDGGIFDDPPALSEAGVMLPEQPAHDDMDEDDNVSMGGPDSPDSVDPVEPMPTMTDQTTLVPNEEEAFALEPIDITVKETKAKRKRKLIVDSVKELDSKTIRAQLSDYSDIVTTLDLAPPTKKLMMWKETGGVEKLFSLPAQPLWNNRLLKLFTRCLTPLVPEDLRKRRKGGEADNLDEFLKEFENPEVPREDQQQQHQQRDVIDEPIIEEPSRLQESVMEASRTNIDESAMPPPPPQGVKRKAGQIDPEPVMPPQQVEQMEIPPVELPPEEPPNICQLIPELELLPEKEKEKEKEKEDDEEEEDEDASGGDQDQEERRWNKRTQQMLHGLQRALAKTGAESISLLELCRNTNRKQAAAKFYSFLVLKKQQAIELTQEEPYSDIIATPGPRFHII

Legend:
Test in all cases: log2 fold change, soluble protein after heating vs DMSO (PISA); higher = thermal stabilisation; K562 lysate, 10 uM; active = over 0.2 and 3.5 SD of the protein, either way, in both replicates (recomputed)
erlotinib = compound: C#Cc1cccc(Nc2ncnc3cc(OCCOC)c(OCCOC)cc23)c1 [erlotinib]
Procedure, shortened: (§1)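 Dounce homogenisation of K562 pellets in PBS pH 7.4 with 1 mM MgCl2 produced a crude extract, used at 1 mg/mL protein. Exposure to 10 μM compound lasted 30 min, and aliquots were then heated for 3 min across 48°C-58°C, pooled and brought to 0.5% NP-40 at 4°C. The supernatant after 21,000xg for 90 min was quantified by TMTpro 16plex LC-MS/MS with channel sums equalised. Duplicate values are given as log-two fold change in thermal stability relative to solvent controls.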

[1] = compound: C/C(=N\NC(=O)C1=CC(=CC=C1)S(=O)(=O)N2CCOCC2)/C3=C(C=CC(=C3)Cl)O
Procedure, shortened: as §1

[2] = compound: C1=CC(=CC=C1C2=NC3=C(N2)C=C(C=C3)C(=O)N)OC4=CC=C(C=C4)Cl
Procedure, shortened: as §1

[3] = compound: C1=CC2=C(C=CC(=C2)/C=C\3/C(=O)NC(=NCC4=CC=CS4)S3)N=C1
Procedure, shortened: as §1

[4] = compound: C1=CC2=NC=CN=C2C=C1/C=C/3\C(=O)NC(=O)S3
Procedure, shortened: as §1

[5] = compound: C1=CC=C(C=C1)C2=NC(=C(N2)C3=CC=NC=C3)C4=CC(=C(C=C4)Cl)O
Procedure, shortened: as §1

[6] = compound: C1=CC=C2C(=C1)C3=NNC4=CC=CC(=C43)C2=O
Procedure, shortened: as §1

[7] = compound: C1CCN(C1)C(=O)NC2=CC=CC(=C2)NC3=NC=C(C(=N3)NCCC4=CN=CN4)Br
Procedure, shortened: as §1

[8] = compound: C1CN(CCC1(CC2=CC=C(C=C2)Cl)N)C3=NC=NC4=C3C=CN4
Procedure, shortened: as §1

IRAK-1-4 Inhibitor I = compound: C1COCCN1CCN2C3=CC=CC=C3N=C2NC(=O)C4=CC(=CC=C4)[N+](=O)[O-] [IRAK-1-4 Inhibitor I]
Procedure, shortened: as §1

ibrutinib = compound: C=CC(=O)N1CCC[C@@H](n2nc(-c3ccc(Oc4ccccc4)cc3)c3c(N)ncnc32)C1 [ibrutinib]
Procedure, shortened: as §1

[9] = compound: CC(=O)c1cnc2ccc(-c3cc(Cl)c(O)c(Cl)c3)nc2c1N[C@H]1CC[C@H](CN(C)C)CC1
Procedure, shortened: as §1

ralimetinib = compound: CC(C)(C)Cn1c(N)nc2ccc(-c3[nH]c(C(C)(C)C)nc3-c3ccc(F)cc3)nc21 [ralimetinib]
Procedure, shortened: as §1

[10] = compound: CC(C)(O)CC(=O)NCCn1ccc2ncnc(Nc3ccc(Oc4cccc(C(F)(F)F)c4)c(Cl)c3)c21
Procedure, shortened: as §1

[11] = compound: CC(C)C1=C2N=C(C=C(N2N=C1)NCC3=CC=CC=C3)NCCCCCCN
Procedure, shortened: as §1

[12] = compound: CC1=C(C(CC(=O)N1)C2=CC=C(C=C2)C(F)(F)F)C(=O)NC3=C(C=C4C(=C3)C=NN4)F
Procedure, shortened: as §1

[13] = compound: CC1=C(C2=C(C=C1)C(=O)C3=CC=CC=C3N2CCCN)C
Procedure, shortened: as §1

[14] = compound: CC1=C(C=C(C=C1)NC(=O)C2=CC(=CC=C2)C(C)(C)C#N)NC3=CC4=C(C=C3)N=CN(C4=O)C
Procedure, shortened: as §1

[15] = compound: CC1=C(C=C(C=C1)NC(=O)C2=CC(=CC=C2)N(C)C)NC(=O)C3=CC=C(C=C3)O
Procedure, shortened: as §1

[16] = compound: CC1=CC=C(C=C1)SC2=C3C=C(SC3=CN=C2)C(=O)N
Procedure, shortened: as §1

| Target | log2 fold change (erlotinib) | log2 fold change [1] | log2 fold change [2] | log2 fold change [3] | log2 fold change [4] | log2 fold change [5] | log2 fold change [6] | log2 fold change [7] | log2 fold change [8] | log2 fold change (IRAK-1-4 Inhibitor I) | log2 fold change (ibrutinib) | log2 fold change [9] | log2 fold change (ralimetinib) | log2 fold change [10] | log2 fold change [11] | log2 fold change [12] | log2 fold change [13] | log2 fold change [14] | log2 fold change [15] | log2 fold change [16] |
| --- | --- | --- | --- | --- | --- | --- | --- | --- | --- | --- | --- | --- | --- | --- | --- | --- | --- | --- | --- | --- |
| QKI (UniProt Q96PU8) | inactive: -0.023 | inactive: -0.018 | inactive: -0.001 | inactive: -0.005 | inactive: 0.012 | inactive: -0.029 | inactive: 0.012 | inactive: 0.005 | inactive: -0.034 | inactive: 0.027 | inactive: -0.022 | inactive: -0.012 | inactive: -0.023 | inactive: -0.027 | inactive: 0.029 | inactive: 0.065 | inactive: 0.069 | inactive: -0.094 | inactive: 0.009 | inactive: -0.023 |
| RAB12 (UniProt Q6IQ22) | inactive: -0.04 | inactive: 0.253 | inactive: -0.026 | inactive: -0.007 | inactive: 0.001 | inactive: -0.024 | inactive: -0.041 | inactive: -0.019 | inactive: 0.024 | inactive: -0.026 | inactive: 0.015 | inactive: -0.013 | inactive: 0.036 | inactive: -0.016 | inactive: -0.017 | inactive: 0.017 | inactive: 0.031 | inactive: 0.036 | inactive: 0.031 | inactive: 0.021 |
| RAB18 isoform 2 (UniProt Q9NP72) | inactive: -0.037 | inactive: 0.021 | inactive: 0.008 | inactive: -0.013 | inactive: -0.058 | inactive: 0.028 | inactive: -0.088 | inactive: -0.034 | inactive: -0.032 | inactive: -0.021 | inactive: -0.012 | inactive: -0.02 | inactive: -0.011 | inactive: 0.024 | inactive: 0.012 | inactive: 0.008 | inactive: -0.048 | inactive: -0.026 | inactive: 0.019 | inactive: -0.045 |
| RAB8A (UniProt P61006) | inactive: -0.087 | inactive: 0.009 | inactive: -0.042 | inactive: -0.004 | inactive: 0.004 | inactive: -0.03 | inactive: 0.04 | inactive: 0.022 | inactive: -0.043 | inactive: -0.035 | inactive: -0.001 | inactive: 0.002 | inactive: 0.024 | inactive: 0.056 | inactive: -0.041 | inactive: 0.005 | inactive: 0.015 | inactive: -0.11 | inactive: -0.021 | inactive: 0.015 |
| RABL3 (UniProt Q5HYI8) | active: 0.706 | inactive: -0.019 | inactive: -0.025 | inactive: 0.011 | inactive: 0.008 | active: 0.96 | inactive: -0.041 | inactive: 0.015 | inactive: 0.017 | inactive: 0.48 | inactive: 0.017 | inactive: 0.014 | inactive: 0.153 | inactive: -0.05 | inactive: -0.047 | inactive: 0.021 | inactive: -0.043 | inactive: 0.003 | inactive: -0.141 | inactive: 0.014 |
| RAD23A (UniProt P54725) | inactive: -0.044 | inactive: 0.016 | inactive: -0.04 | inactive: -0.059 | inactive: -0.047 | inactive: -0.027 | inactive: 0.026 | inactive: 0.025 | inactive: -0.052 | inactive: -0.022 | inactive: 0.06 | inactive: -0.01 | inactive: 0.057 | inactive: 0.037 | inactive: -0.045 | inactive: 0.009 | inactive: 0.027 | inactive: 0.007 | inactive: 0.018 | inactive: -0.005 |
| RAB35 (UniProt Q15286) | inactive: -0.045 | inactive: 0.008 | inactive: 0.035 | inactive: 0.006 | inactive: -0.043 | inactive: 0.01 | inactive: -0.028 | inactive: -0.014 | inactive: 0 | inactive: -0.056 | inactive: 0.027 | inactive: -0.015 | inactive: -0.006 | inactive: 0.058 | inactive: -0.027 | inactive: 0.011 | inactive: -0.014 | inactive: -0.027 | inactive: -0.006 | inactive: -0.023 |
| QPRT (UniProt Q15274) | inactive: 0.041 | inactive: 0.02 | inactive: 0.012 | inactive: -0.003 | inactive: -0.016 | inactive: -0.003 | inactive: -0.003 | inactive: -0.012 | inactive: 0.026 | inactive: 0.027 | inactive: -0.013 | inactive: 0.011 | inactive: -0.015 | inactive: -0.057 | inactive: -0.027 | inactive: -0.02 | inactive: -0.034 | inactive: 0.026 | inactive: -0.027 | inactive: 0.002 |
| RALBP1 (UniProt Q15311) | inactive: 0 | inactive: -0.035 | inactive: 0.002 | inactive: 0.036 | inactive: -0.027 | inactive: 0.039 | inactive: 0 | inactive: -0.073 | inactive: -0.03 | inactive: -0.015 | inactive: 0.044 | inactive: 0.028 | inactive: -0.006 | inactive: -0.035 | inactive: -0.001 | inactive: 0.008 | inactive: -0.009 | inactive: 0.033 | inactive: 0.055 | inactive: 0 |
| RANBP2 (UniProt P49792) | inactive: 0.017 | inactive: 0.014 | inactive: -0.004 | inactive: -0.011 | inactive: -0.012 | inactive: -0.004 | inactive: -0.038 | inactive: -0.001 | inactive: -0.007 | inactive: -0.019 | inactive: 0.001 | inactive: -0.01 | inactive: 0.018 | inactive: -0.009 | inactive: -0.01 | inactive: 0.011 | inactive: 0.007 | inactive: 0 | inactive: 0.018 | inactive: -0.001 |
| RAB4A (UniProt P20338) | inactive: 0.041 | inactive: 0.043 | inactive: 0.004 | inactive: 0.04 | inactive: -0.016 | inactive: 0.053 | inactive: 0.008 | inactive: -0.026 | inactive: -0.013 | inactive: -0.03 | inactive: 0.094 | inactive: 0.005 | inactive: -0.007 | inactive: -0.026 | inactive: -0.016 | inactive: 0.016 | inactive: -0.03 | inactive: -0.027 | inactive: 0 | inactive: 0.023 |
| RAD18 (UniProt Q9NS91) | inactive: -0.006 | inactive: -0.063 | inactive: -0.028 | inactive: 0.033 | inactive: -0.022 | inactive: -0.023 | inactive: 0.001 | inactive: 0.014 | inactive: -0.022 | inactive: -0.018 | inactive: 0.027 | inactive: 0.029 | inactive: 0.047 | inactive: -0.007 | inactive: -0.026 | inactive: -0.018 | inactive: -0.022 | inactive: -0.031 | inactive: 0.002 | inactive: 0.042 |
| RAB32 (UniProt Q13637) | inactive: -0.023 | inactive: -0.047 | inactive: -0.003 | inactive: 0.008 | inactive: -0.041 | inactive: 0.002 | inactive: 0.015 | inactive: 0.018 | inactive: 0.088 | inactive: 0.019 | inactive: 0.08 | inactive: 0.037 | inactive: -0.008 | inactive: -0.025 | inactive: 0.008 | inactive: 0.045 | inactive: 0 | inactive: 0.027 | inactive: 0.01 | inactive: -0.043 |
| RAP1GDS1 isoform 5 (UniProt P52306) | inactive: 0.045 | inactive: 0.014 | inactive: 0.027 | inactive: -0.009 | inactive: -0.009 | inactive: -0.012 | inactive: -0.007 | inactive: 0.022 | inactive: -0.002 | inactive: 0.026 | inactive: 0.018 | inactive: 0.018 | inactive: 0.026 | inactive: -0.005 | inactive: -0.009 | inactive: -0.019 | inactive: -0.006 | inactive: -0.031 | inactive: 0.02 | inactive: -0.003 |
| RAB11FIP1 (UniProt Q6WKZ4) | inactive: -0.023 | inactive: -0.097 | inactive: -0.027 | inactive: 0.029 | inactive: -0.024 | inactive: -0.034 | inactive: -0.07 | inactive: -0.011 | inactive: 0.019 | inactive: -0.024 | inactive: 0.015 | inactive: -0.011 | inactive: 0.031 | inactive: -0.012 | inactive: 0.003 | inactive: 0.004 | inactive: 0.001 | inactive: 0.02 | inactive: 0.033 | inactive: -0.002 |
| RAD21 (UniProt O60216) | inactive: -0.049 | inactive: 0.028 | inactive: -0.032 | inactive: 0.015 | inactive: -0.003 | inactive: 0.019 | inactive: 0.002 | inactive: -0.01 | inactive: -0.001 | inactive: -0.004 | inactive: -0.025 | inactive: -0.009 | inactive: 0.012 | inactive: 0.01 | inactive: -0.041 | inactive: -0.016 | inactive: -0.037 | inactive: 0.006 | inactive: 0.006 | inactive: -0.013 |

Whole records from above. Order of values: log2 fold change (erlotinib) | log2 fold change [1] | log2 fold change [2] | log2 fold change [3] | log2 fold change [4] | log2 fold change [5] | log2 fold change [6] | log2 fold change [7] | log2 fold change [8] | log2 fold change (IRAK-1-4 Inhibitor I) | log2 fold change (ibrutinib) | log2 fold change [9] | log2 fold change (ralimetinib) | log2 fold change [10] | log2 fold change [11] | log2 fold change [12] | log2 fold change [13] | log2 fold change [14] | log2 fold change [15] | log2 fold change [16]
RAD23A (UniProt P54725) is listed with inactive: -0.044 | inactive: 0.016 | inactive: -0.04 | inactive: -0.059 | inactive: -0.047 | inactive: -0.027 | inactive: 0.026 | inactive: 0.025 | inactive: -0.052 | inactive: -0.022 | inactive: 0.06 | inactive: -0.01 | inactive: 0.057 | inactive: 0.037 | inactive: -0.045 | inactive: 0.009 | inactive: 0.027 | inactive: 0.007 | inactive: 0.018 | inactive: -0.005
RAB11FIP1 (UniProt Q6WKZ4) is listed with inactive: -0.023 | inactive: -0.097 | inactive: -0.027 | inactive: 0.029 | inactive: -0.024 | inactive: -0.034 | inactive: -0.07 | inactive: -0.011 | inactive: 0.019 | inactive: -0.024 | inactive: 0.015 | inactive: -0.011 | inactive: 0.031 | inactive: -0.012 | inactive: 0.003 | inactive: 0.004 | inactive: 0.001 | inactive: 0.02 | inactive: 0.033 | inactive: -0.002
